Measurements from patent US10676518B1, “A4B2 nicotinic acetylcholine receptors with reduced or increased nicotine sensitivity and transgenic mouse model for the same” (University of Puerto Rico, priority 2015, dated 2020).

Test system: α4β2 nAChRs expressed in Xenopus laevis oocytes
Test: Efficacy of agonist A-85380 versus ACh for subunit stoichiometry determination
Assay type: cell-based, Rattus norvegicus
Settings: α4β2 mRNA 2:3 ratio
Method: To determine whether the α4β2 mutations α4S469Aβ2, α4S471Dβ2, α4T536Aβ2 and α4Y576Aβ2 expressed in Xenopus laevis oocytes assemble in the α4(2):β2(3) or the α4(3):β2(2) stoichiometry, we estimated the efficacy of agonist A-85380 when compared to ACh 300 μM. […] The efficacy of A-85380 in WTα4(2):β2(3) and […] was determined by comparing the macroscopic current elicited by A-85380 100 nM and ACh 300 μM in oocytes microinjected α4β2 mRNA in 1:10 and 10:1 ratios, respectively. The efficacy of A-85380 in α4S469Aβ2, α4S471Dβ2, α4T536Aβ2 and α4Y576Aβ2 was determined by comparing the macroscopic current elicited by A-85380 100 nM and ACh 300 μM in oocytes microinjected α4β2 mRNA in 2:3 ratio. The changes in stoichiometry in these four mutants were assessed by comparing the efficacy of A-85380 in each mutant compared to WTα4(2):β2(3) and WTα4(3):β2(2).

Row | Substance | subunit stoichiometry indicated by efficacy of A-85380
1 | α4S469Aβ2: rat α4β2 nAChR, α4 subunit point mutation S469A, CKII putative phosphorylation site | α4(2):β2(3) stoichiometry
2 | α4S471Dβ2: rat α4β2 nAChR, α4 subunit point mutation S471D, PKA putative phosphorylation site | α4(2):β2(3) stoichiometry
